Assay: peptide synthesis
Details: purification step, oxalate

Substance Carfilzomib has a step yield of 80%.
